# Reference: the supplement of paper PMC12578635
# ± gives the standard deviation of the averaged measurements. The list shows a part of the results. Single values are uncertain, as repeats are few or missing.
# Test system: RAW 264.7 macrophages infected with S. aureus JE2-lux
# Test: host macrophage viability (CellTiter-Fluor) relative to DMSO vehicle; higher = more viable host cells
# Settings: 10 µM; treatment time 4 h; gentamicin 50 µg/ml
row,SMILES,host macrophage viability
1,O=C(CSc1ccc([N+](=O)[O-])cc1[N+](=O)[O-])Nc1cccc(C(F)(F)F)c1,102%
2,COc1cc(Br)cc2c1Oc1nc(-c3ccccc3)nc(SCC(N)=O)c1C2,125%
3,Cc1sc(NC(=O)CN(Cc2ccc(F)cc2)C(=O)c2ccncc2)c(C(N)=O)c1C,122%
4,CC(C(=O)N1CCCc2ccccc21)n1cnc2onc(-c3ccc(Cl)cc3)c2c1=O (stereo not drawn),104%
5,CCN1CC2=C(OC(N)=C(C#N)C2c2ccc(F)cc2)/C(=C/c2ccc(F)cc2)C1 (stereo not drawn),116%
6,O=C(NCCc1c[nH]c2ccccc12)C(=O)c1cn(CC(=O)N2CCCC2)c2ccccc12,105%
7,Cc1cc(NC(=O)CN2CC(C)CC(C)C2)nc2c1c(=O)oc1ccccc12 (stereo not drawn),126%
8,COc1cc(C(=O)NC(=S)Nc2cccc3c2C(=O)NC3=O)cc(OC)c1OC,121 ± 14%
9,CCc1nc2ccc(NC(=O)c3nc(-c4ccc(F)cc4)oc3C)cc2[nH]1,103%
10,CCOC(=O)c1sc2nc(NC(=O)C3CCCCC3)sc2c1C,97.9%
11,Cc1ccc2cc(CN(Cc3ccccc3)C(=O)c3cccnc3)c(Cl)nc2c1,104%
12,C=CCn1/c(=N/C(=O)c2nc3ccccc3s2)sc2cc(NC(C)=O)ccc21,126%
13,COc1ccc(N2CCN(c3cc(C)nc4nncn34)CC2)cc1,108%
14,COC(=O)c1cccc(NC(=O)N2CCC(c3nnc(C(=O)Nc4ccccc4F)s3)CC2)c1,97.4%
15,CCOC(=O)c1cc(C)nc2c1c(=O)n(Cc1cccc(C(F)(F)F)c1)c(=O)n2C,115%
16,CCOc1ccc(CCNC(=O)COc2ncnc3oc(C)c(C)c23)cc1OCC,146%
17,Cc1sc2nc(C)n(C3CCN(C(=O)Cc4ccsc4)CC3)c(=O)c2c1C,117%
18,CCOc1ccc(Nc2c(CC)c(C)c(C#N)c3nc4ccccc4n23)cc1,119%
19,NC(=O)CSc1cn(Cc2ccc(Cl)cc2)c2ccccc12,95.1%
20,c1cncc(CSc2ncnc3c2sc2nc4ccccc4cc23)c1,125%
21,CCN1CCCC1CNCc1cc2c(C)cc(C)cc2n2c(=O)n(C)nc12 (stereo not drawn),127%

# 2 entries picked at random from those above, as already listed:
row,SMILES,host macrophage viability
8,COc1cc(C(=O)NC(=S)Nc2cccc3c2C(=O)NC3=O)cc(OC)c1OC,121 ± 14%
15,CCOC(=O)c1cc(C)nc2c1c(=O)n(Cc1cccc(C(F)(F)F)c1)c(=O)n2C,115%

# The results go on.

row,SMILES,host macrophage viability
1,O=C(Nc1nc2ccc3ccccc3c2s1)c1cccc(N2C(=O)CCC2=O)c1,124%
2,COc1cccc(/N=C2\NC(=O)/C(=C3/C(=O)Nc4ccccc43)S2)c1,96.2 ± 2.3%
3,Cn1cnc2cc(-c3noc(CNC(=O)C(c4ccccc4)c4ccccc4)n3)ccc21,105%
4,Cc1cc(NC(=O)CSc2c(C)[nH]c3ccccc23)no1,132%
5,O=C1CC(Nc2ccc(N3CCOCC3)cc2)C(=O)N1c1ccc(Cl)c(C(F)(F)F)c1 (stereo not drawn),120%
6,CCN(CC)CCNC(=O)c1cc2cc([NH+]([O-])O)ccc2oc1=O (stereo not drawn),109%
7,O=C(CC(=O)N/N=C1\C(=O)Nc2ccccc21)N/N=C1\C(=O)Nc2ccccc21,91.7 ± 3.5%
8,Cc1ccc(Cl)cc1NC(=O)NCCCn1c(C(F)(F)F)nc2cccnc21,130%
9,Cc1nnc(NC(=O)CSc2nnc(CNC(=O)c3ccco3)o2)s1,105%
10,CCCN1CCN(C(=O)Cn2c(C)nc3onc(C)c3c2=O)CC1,107%
11,CCC(Sc1nncn1C)C(=O)Nc1nnc(-c2ccc(F)cc2)s1 (stereo not drawn),118 ± 20%
12,CC1CC(C)CN(S(=O)(=O)c2ccc(C(=O)Nc3sccc3C(N)=O)cc2)C1 (stereo not drawn),121%
13,CCC(=O)Nc1c(C(=O)OC)sc2ccccc12,112 ± 10%
14,c1ccc(NCc2nnc3c(Nc4ccccc4)nc4ccccc4n23)cc1,105%
15,Cc1nc2sc(C(c3ccco3)N3CC(C)CC(C)C3)c(O)n2n1 (stereo not drawn),107 ± 5.2%
16,Cc1cc2cc(CCNC(=O)C34CC5CC(CC(C5)C3)C4)c(=O)[nH]c2cc1C,121%
17,Cc1ccc(CN2C(=O)/C(=C3/C(=O)Nc4ccccc43)SC2=S)cc1,130%
18,Cc1cc(NC(=O)C(=O)NCC(c2ccc3c(c2)CCCN3C)N2CCCC2)c2ccccc2n1 (stereo not drawn),95.3%
19,COc1ccc(NC(=O)Cn2cc(C(=O)c3ccc(C)c(C)c3)c(=O)c3cc4c(cc32)OCO4)cc1,119%
20,O=C(/C=C1\SC(=O)NC1=O)Nc1ncc(Cc2cccc(C(F)(F)F)c2)s1,104%
21,CCOC(=O)c1ccc(NC(=O)CCN2C(=O)/C(=C/c3ccccc3OC)SC2=S)cc1,99.4%

row,SMILES,host macrophage viability
1,CCOC(=O)c1[nH]c2ccccc2c1NC(=O)c1ccc(N2C(=O)CCC2=O)cc1,101%
2,CCOC(=O)c1c(NC(=O)CCSc2nc3sc(C)c(C)c3c(=O)[nH]2)sc(C)c1C,133%
3,Cc1cc(NS(=O)(=O)c2ccc3onc(C(=O)N4CCCC4)c3c2)ccc1Br,83.3%
4,NS(=O)(=O)c1ccc(O)c(N2C(=O)c3cccc4c(C(=O)c5ccccc5)ccc(c34)C2=O)c1,115%
5,O=C1NCCc2c(OCc3cccc(C(F)(F)F)c3)cccc21,123%
6,Cc1ccc(-c2noc3ncnc(N4CCC(C(=O)NCc5ccc6c(c5)OCO6)CC4)c23)cc1,107%
7,O=C(CCC(=O)N1CCN(C(c2ccccc2)c2ccccc2)CC1)Nc1noc2ccccc12,121%
8,COc1ccc(-c2cc(C(=O)NC3CCCCC3C)n[nH]2)cc1S(=O)(=O)N(C)C (stereo not drawn),88.2%
9,CC(=O)Nc1ccc(NC2=NC(=O)/C(=C\c3ccc(C)o3)S2)cc1,103%
10,CCN1CCN(c2ccc(C(=O)OC)cc2NC(=O)c2cccnc2)CC1,88.5%
11,COc1cc(NC(=O)N2CCn3cccc3C2c2ccc(F)c(F)c2)cc(OC)c1OC (stereo not drawn),121%
12,CCNc1nc(NCC)nc(Sc2ccc([N+](=O)[O-])cc2[N+](=O)[O-])n1,84%
13,Cc1oc2ncnc(N3CCCC(C(=O)N4CCN(C5CCCCC5)CC4)C3)c2c1C (stereo not drawn),127%
14,O=C(NCc1ccccc1)N1CCn2cccc2C1c1cccnc1 (stereo not drawn),124%
15,O=C1Nc2ccccc2Oc2ccc(NS(=O)(=O)Cc3ccc(F)cc3)cc21,115%
16,CCc1c(C#N)c(SCC(=O)c2cc3ccccc3oc2=O)nc2c1CCC2,131%
17,Cc1ccc2cc3c(nc2c1)sc1c(SCC(=O)Nc2ccccc2F)ncnc13,106%
18,Cc1cccc(NC(=O)NC2(C(=O)NCc3ccco3)CCCCC2)c1,114%
19,O=C(Nc1ncnc2sccc12)c1ccc(C(=O)c2ccccc2)cc1,104%
20,COc1ccc(CCNC(=O)COc2cccc3c2CCN(Cc2cccnc2)C3=O)cc1OC,136%
21,O=C(Cn1c2ccccc2n2c(=O)cc(-c3cccc(Cl)c3)nc12)Nc1nccs1,97.9%
